Laboratory results: PubChem BioAssay AID1224826 (NIAID, 2016)

- Assay: 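Genes that change LPS-induced Tnf promoter activity in mouse macrophages when knocked down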 (primary screen)
- System: RAW264.7 G9 macrophages from mouse bearing reporters for p65 (GFP) and the Tnf promoter (mCherry)
- Reagent: siRNA pool against mouse genes, 100 nM
- Duration: 16 h of LPS stimulation, after 2 days of siRNA transfection
- Challenge: bacterial lipopolysaccharide (Salmonella minnesota R595), 10 ng/ml
- Measurement: 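Imaged Tnf reporter mCherry in nuclei, minus background, normalised per plate to the median and expressed as robust z-scores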
- Scale: Tnf reporter robust z-score: higher = stronger Tnf promoter reporter signal after LPS; Tnf reporter intensity: higher = stronger Tnf promoter reporter signal
- Call rule: 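a well counts as active at a score of -1.3 or below (Tlr4 knock-down control median) or above 3 (raised signal); controls and wells holding fewer than 50 cells are excluded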
- Meaning of the calls: active = Tnf reporter clearly lowered or raised; inactive = no clear change in Tnf reporter
In all, the deposit lists about 17,000 reagents; below is a random part of them. About 1,110 of all reagents (6.6%) were called active. 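Active means lowered or raised reporter signal; replicate intensities are raw and not normalised per plate.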 Further read-outs or replicates are left out here.

gene | Tnf reporter robust z-score | fewer than 50 cells in well | Tnf reporter intensity, replicate 1 | call
Atp1b4 | 0.31 | enough cells in well | 181 | inactive
R3hcc1l | 2.88 | enough cells in well | 153 | inactive
Synrg | – | fewer than 50 cells per well; well left out of calls | 110 | inactive
Fcf1 | -1 | enough cells in well | 191 | inactive
Gm5115 | 0.55 | enough cells in well | 143 | inactive
Gstp1 | -0.89 | enough cells in well | 199 | inactive
Tspan9 | -0.34 | enough cells in well | 153 | inactive
Bcl7b | -0.85 | enough cells in well | 126 | inactive
Fam161a | -0.04 | enough cells in well | 196 | inactive
Gphr | -1.42 | enough cells in well | 82.2 | active
Prkce | -0.84 | enough cells in well | 146 | inactive
Scaf11 | -0.18 | enough cells in well | 131 | inactive
Rbms2 | 1.04 | enough cells in well | 501 | inactive
Col16a1 | 1.13 | enough cells in well | 336 | inactive
Tppp | – | fewer than 50 cells per well; well left out of calls | 261 | inactive
Ccdc25 | – | fewer than 50 cells per well; well left out of calls | 122 | inactive
Tnnt1 | 0.61 | enough cells in well | 280 | inactive
Igsf5 | 0.19 | enough cells in well | 209 | inactive
Cstf2t | 0.9 | enough cells in well | 316 | inactive
Spock2 | 2.78 | enough cells in well | 197 | inactive
Ly9 | -0.65 | enough cells in well | 150 | inactive
Dolk | -0.15 | enough cells in well | 123 | inactive
Or5an6 | 0.84 | enough cells in well | 263 | inactive
Lamp2 | 0.24 | enough cells in well | 281 | inactive
Gbp4 | -0.02 | enough cells in well | 113 | inactive
Kcnab1 | -0.57 | enough cells in well | 199 | inactive
Emc3 | – | fewer than 50 cells per well; well left out of calls | 208 | inactive
Shc1 | -0.15 | enough cells in well | 183 | inactive
Or1aa2 | -0.42 | enough cells in well | 193 | inactive
Or4d2 | – | fewer than 50 cells per well; well left out of calls | 134 | inactive

13 of these entries, set out differently:
{"gene": "Scaf11", "Tnf reporter robust z-score": -0.18, "fewer than 50 cells in well": "enough cells in well", "Tnf reporter intensity, replicate 1": 131, "call": "inactive"}
{"gene": "Rbms2", "Tnf reporter robust z-score": 1.04, "fewer than 50 cells in well": "enough cells in well", "Tnf reporter intensity, replicate 1": 501, "call": "inactive"}
{"gene": "Col16a1", "Tnf reporter robust z-score": 1.13, "fewer than 50 cells in well": "enough cells in well", "Tnf reporter intensity, replicate 1": 336, "call": "inactive"}
{"gene": "Tppp", "fewer than 50 cells in well": "fewer than 50 cells per well; well left out of calls", "Tnf reporter intensity, replicate 1": 261, "call": "inactive"}
{"gene": "Ccdc25", "fewer than 50 cells in well": "fewer than 50 cells per well; well left out of calls", "Tnf reporter intensity, replicate 1": 122, "call": "inactive"}
{"gene": "Tnnt1", "Tnf reporter robust z-score": 0.61, "fewer than 50 cells in well": "enough cells in well", "Tnf reporter intensity, replicate 1": 280, "call": "inactive"}
{"gene": "Igsf5", "Tnf reporter robust z-score": 0.19, "fewer than 50 cells in well": "enough cells in well", "Tnf reporter intensity, replicate 1": 209, "call": "inactive"}
{"gene": "Cstf2t", "Tnf reporter robust z-score": 0.9, "fewer than 50 cells in well": "enough cells in well", "Tnf reporter intensity, replicate 1": 316, "call": "inactive"}
{"gene": "Spock2", "Tnf reporter robust z-score": 2.78, "fewer than 50 cells in well": "enough cells in well", "Tnf reporter intensity, replicate 1": 197, "call": "inactive"}
{"gene": "Ly9", "Tnf reporter robust z-score": -0.65, "fewer than 50 cells in well": "enough cells in well", "Tnf reporter intensity, replicate 1": 150, "call": "inactive"}
{"gene": "Dolk", "Tnf reporter robust z-score": -0.15, "fewer than 50 cells in well": "enough cells in well", "Tnf reporter intensity, replicate 1": 123, "call": "inactive"}
{"gene": "Or5an6", "Tnf reporter robust z-score": 0.84, "fewer than 50 cells in well": "enough cells in well", "Tnf reporter intensity, replicate 1": 263, "call": "inactive"}
{"gene": "Lamp2", "Tnf reporter robust z-score": 0.24, "fewer than 50 cells in well": "enough cells in well", "Tnf reporter intensity, replicate 1": 281, "call": "inactive"}

Next records follow.
gene | Tnf reporter robust z-score | fewer than 50 cells in well | Tnf reporter intensity, replicate 1 | call
Defa3 | 0.39 | enough cells in well | 212 | inactive
Arid5a | -0.14 | enough cells in well | 198 | inactive
Apoo | 1.61 | enough cells in well | 341 | inactive
Ntm | 0.53 | enough cells in well | 261 | inactive
Rxrb | -0.98 | enough cells in well | 220 | inactive
Prelid3a | -0.63 | enough cells in well | 144 | inactive
Tcl1b1 | – | fewer than 50 cells per well; well left out of calls | 53.2 | inactive
Lama2 | -0.1 | enough cells in well | 231 | inactive
Il1r2 | -0.5 | enough cells in well | 193 | inactive
Slc5a1 | 1.14 | enough cells in well | 283 | inactive
Dock2 | -1.73 | enough cells in well | 112 | active
Ugt2b37 | -0.46 | enough cells in well | 240 | inactive
Myt1l | -0.4 | enough cells in well | 232 | inactive
Nr2f6 | -0.44 | enough cells in well | 189 | inactive
Cldn15 | -0.1 | enough cells in well | 110 | inactive
Sec16a | 0.7 | enough cells in well | 212 | inactive
Has2 | -0.33 | enough cells in well | 240 | inactive
Mcpt2 | 0.01 | enough cells in well | 176 | inactive
Dnajc22 | -1.38 | enough cells in well | 117 | active
Fscn2 | -1.06 | enough cells in well | 141 | inactive
Actg1 | -1.36 | enough cells in well | 78.9 | active
Dhrs7 | 0.16 | enough cells in well | 232 | inactive
Mymk | -1.04 | enough cells in well | 187 | inactive
Klra10 | 0.66 | enough cells in well | 271 | inactive
Eif1ax | -0.74 | enough cells in well | 158 | inactive
Gsx2 | -0.06 | enough cells in well | 256 | inactive
Tlr13 | 0.15 | enough cells in well | 118 | inactive
Dnajc19 | 0.81 | enough cells in well | 195 | inactive
Eapp | 0.52 | enough cells in well | 254 | inactive
Barx1 | 1.31 | enough cells in well | 198 | inactive
Cxcr2 | -0.27 | enough cells in well | 189 | inactive
Spred2 | 4.23 | enough cells in well | 326 | active
Gnai3 | -0.22 | enough cells in well | 157 | inactive
Supt5 | -1.71 | enough cells in well | 130 | active
Adissp | 1.85 | enough cells in well | 342 | inactive
Ghsr | 0.96 | enough cells in well | 254 | inactive
Btg3 | 0.95 | enough cells in well | 199 | inactive
Cetn2 | -0.75 | enough cells in well | 115 | inactive
Urgcp | – | fewer than 50 cells per well; well left out of calls | 114 | inactive
Amacr | 1.26 | enough cells in well | 260 | inactive
Lzic | 1.75 | enough cells in well | 280 | inactive
Blk | 0.69 | enough cells in well | 254 | inactive
Aggf1 | 0.05 | enough cells in well | 188 | inactive
Rgs5 | -0.11 | enough cells in well | 272 | inactive
Enoph1 | 0.08 | enough cells in well | 170 | inactive
